These are yes or no findings as the source states them, for the method shown. In cells and extracts the contact can be indirect. Where a sequence is shown, tags or fusion partners need not be part of it.

The target in assay [1] is T1, Ndc10p-YFP (S. cerevisiae) (UniProt P32504).
T1 sequence: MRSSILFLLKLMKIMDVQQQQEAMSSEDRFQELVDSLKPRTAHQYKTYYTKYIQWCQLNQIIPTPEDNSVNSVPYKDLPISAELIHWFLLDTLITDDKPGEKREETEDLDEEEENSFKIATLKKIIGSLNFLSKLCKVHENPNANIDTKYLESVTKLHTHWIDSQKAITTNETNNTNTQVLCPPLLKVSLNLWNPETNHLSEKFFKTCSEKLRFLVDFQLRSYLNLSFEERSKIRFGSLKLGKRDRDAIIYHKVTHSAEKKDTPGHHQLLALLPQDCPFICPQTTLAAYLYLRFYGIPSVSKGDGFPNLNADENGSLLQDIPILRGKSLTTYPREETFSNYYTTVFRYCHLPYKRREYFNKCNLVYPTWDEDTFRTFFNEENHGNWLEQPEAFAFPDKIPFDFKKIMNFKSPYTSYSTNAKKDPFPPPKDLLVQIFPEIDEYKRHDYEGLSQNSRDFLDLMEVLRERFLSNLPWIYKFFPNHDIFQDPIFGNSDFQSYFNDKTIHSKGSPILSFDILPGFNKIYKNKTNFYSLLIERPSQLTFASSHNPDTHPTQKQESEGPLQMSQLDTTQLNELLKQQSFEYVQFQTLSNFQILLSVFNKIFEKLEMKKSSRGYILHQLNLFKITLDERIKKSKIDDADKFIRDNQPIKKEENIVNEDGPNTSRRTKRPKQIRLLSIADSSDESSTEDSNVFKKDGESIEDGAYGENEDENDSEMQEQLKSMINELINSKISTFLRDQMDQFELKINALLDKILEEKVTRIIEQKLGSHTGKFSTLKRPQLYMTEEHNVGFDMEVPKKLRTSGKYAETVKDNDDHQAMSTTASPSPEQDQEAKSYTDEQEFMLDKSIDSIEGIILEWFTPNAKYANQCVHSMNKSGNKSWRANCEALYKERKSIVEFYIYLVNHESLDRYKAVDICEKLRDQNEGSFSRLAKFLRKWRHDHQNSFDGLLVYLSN
In words: FRET or BRET; FLIM-FRET in live diploid budding yeast in 96-well plates at room temperature (~24 °C); lifetime of the donor mTq2FP at kinetochore foci, image-wise monoexponential fit, compared with the donor-only strain of the same group; acceptor YFP; both fluorophores at the C-termini. (In general: BRET reads energy transfer from a luciferase to a nearby fluorophore.)

Assay [2] addresses Mtw1p stochastically tagged with both mTq2FP and YFP (S. cerevisiae) (UniProt P39731). Described as above.

B1: Ask1p-mTq2FP (protein, UniProt P35734 1-292)
chain: MDSASKEETLEKLDQEITVNLQKIDSNLSFCFHKITQDIIPHVATYSEICERIMDSTEWLGTMFQETGLVNLQANAAAPVGNAPVKSLVSNNVGIFPTSAEEASRQSQTDNGPNEADSAVHVNRDVHSMFNNDSIDDFHTANITSTGQILKLPDSSDEDTGSEAVPSREQTDLTGEGHGGADDEQDESTIQRQSRKRKISLLLQQQYGSSSSMVPSPIVPNKMRKQLAHEEHINNDGDNDDENSNNIESSPLKQGHHHPKGQADDNNEGPDEEESTKEVPKPGTIIHFSTNR
For B1, the binding entry in assay [1] was “no binding”.

B2: Mtw1p stochastically tagged with both mTq2FP and YFP (protein, UniProt P39731 1-289)
chain: MSAPTMRSTSILTEHLGYPPISLVDDIINAVNEIMYKCTAAMEKYLLSKSKIGEEDYGEEIKSGVAKLESLLENSVDKNFDKLELYVLRNVLRIPEEYLDANVFRLENQKDLVIVDENELKKSEEKLREKVNDVELAFKKNEMLLKRVTKVKRLLFTIRGFKQKLNELLKCKDDVQLQKILESLKPIDDTMTLLTDSLRKLYVDSESTSSTEEVEALLQRLKTNGKQNNKDFRTRYIDIRTNNVLRKLGLLGDKEDEKQSAKPDARTQAGDIVSIDIEEPQLDLLDDVL
Take B2: in assay [2], the binding result is “no binding”.

Source of the values: article PMC6537140.
